{
  "source": "PubChem BioAssay AID1347076",
  "about": "(National Center for Advancing Translational Sciences (NCATS), 2019)",
  "note": "Screen size: about 400,000 compounds; about 13,000 (3.2%) were called active. The inconclusive results got no clear call from the source; some entries with a clear call stand among them for comparison. Calls come from the whole dose curve; as a rule, active = well fitted cell-killing curve with a large enough effect; inconclusive = small, poorly fitted or top-dose-only effect, or effect the other way; inactive = flat fitted curve, though single readings scatter. Potencies of inconclusive entries are doubtful fits and often do not repeat. % is set by controls: 0 for no effect and ±100 for the full control effect; potency is the fitted concentration of half-maximal effect.",
  "data": [
    {"assay": "qHTS assay for MDR1-selective chemotherapeutics: Primary screen using the drug-selected MDR subline cells KB-V1; note: nearly all actives have a fitted effect of over 60% in size", "conditions": "KB-V1 MDR cells viability, CellTiter-Glo, 72 h; activity change, negative = cytotoxicity: at 46.1 µM (top of the series)", "summary_of_the_method": "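Compound-treated KB-V1 multidrug-resistant cells, 72 h, 37 degrees C; viability by CellTiter-Glo. Fitted qHTS curves give the values.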", "values": [
      {"smiles": "Cc1ccc(NC(=O)CNCc2ccccc2)c(Br)c1", "Potency": "inconclusive: 14.6 µM [cytotoxic, single point]"},
      {"smiles": "CC(C)c1nnc(NC(=O)c2nc(S(=O)(=O)Cc3ccccc3F)ncc2Cl)s1", "activity change, negative = cytotoxicity": "inactive: -10.1%"},
      {"smiles": "N#Cc1c(NC(=O)C2CC(c3ccccc3Cl)=NO2)sc2c1CCC2", "note": "(centres undefined)", "Potency": "active: 25.9 µM"},
      {"smiles": "CC1=NN(c2nc3ccccc3[nH]2)C(=O)C1Cc1ccccc1", "note": "(centres undefined)", "Potency": "inconclusive: 1.16 µM [cytotoxic, full curve, poor fit]"},
      {"smiles": "COc1ccc(C)cc1NC(=O)c1nn(-c2ccccc2)cc1OC", "Potency": "inconclusive: 29.1 µM [cytotoxic, single point]"},
      {"smiles": "COc1ccccc1Nc1c2c(nc3ccccc13)CCC2", "Potency": "inconclusive: 29.1 µM [cytotoxic, single point]"},
      {"smiles": "O=C(Cn1cnc2ccccc21)Nc1ccc(SC(F)F)cc1", "Potency": "inconclusive: 29.1 µM [cytotoxic, single point]"},
      {"smiles": "COc1ccc(-c2noc(CCCC(=O)NCC3CCCO3)n2)cc1", "note": "(centres undefined)", "activity change, negative = cytotoxicity": "inactive: -33.1%"},
      {"smiles": "Cc1noc(C)c1CSCC(=O)Nc1cc(S(=O)(=O)N2CCOCC2)ccc1OC(C)C", "Potency": "inconclusive: 20.6 µM [cytotoxic, single point]"},
      {"smiles": "CC(C)(C)n1nnnc1C(c1ccccc1)N1CCN(c2ccc(F)cc2)CC1", "note": "(centres undefined)", "activity change, negative = cytotoxicity": "inconclusive: -30% [cytotoxic]"},
      {"smiles": "COc1ccc(S(=O)(=O)NC(C)C(=O)Nc2ccccc2C(F)(F)F)cc1", "note": "(centres undefined)", "Potency": "active: 16.4 µM"},
      {"smiles": "C=CCOc1c(CNc2ccc(C(=O)O)cc2)cccc1OCC", "Potency": "inconclusive: 23.1 µM [cytotoxic, partial curve]"},
      {"smiles": "O=S(=O)(N1CCCCC1)N1CCN(c2cc(Cl)ccc2Cl)CC1", "Potency": "inconclusive: 16.4 µM [cytotoxic, single point]"},
      {"smiles": "O=[N+]([O-])c1ccc(C=Nc2cccc3ccccc23)s1", "Potency": "inconclusive: 29.1 µM [cytotoxic, single point]"},
      {"smiles": "Brc1ccccc1-c1nnc2sc(Cc3ccccc3)nn12", "Potency": "inconclusive: 20.6 µM [cytotoxic, single point]"},
      {"smiles": "CC(NC(=O)Cn1cnc2c1c(=O)n(C)c(=O)n2C)c1ccccc1", "note": "(centres undefined)", "Potency": "inconclusive: 32.6 µM [cytotoxic, single point]"},
      {"smiles": "COc1ccc(-c2noc(CN(C)Cc3ccccc3)n2)c(OC)c1OC", "Potency": "inconclusive: 7.31 µM [cytotoxic, partial curve, poor fit]"},
      {"smiles": "CCCn1c(=O)c(C(=O)Nc2ccccc2C)c(O)c2ccccc21", "Potency": "active: 20.6 µM"},
      {"smiles": "Cc1cc(C)n2c(Br)c(CSc3nc4ccccc4s3)nc2n1", "Potency": "inconclusive: 9.2 µM [cytotoxic, partial curve]"}
    ]}
  ]
}
